For at least one entry, the source does not settle the construct or the ends of the probe. For part of these data: Weaker means in comparison with the reference protein, sequence or condition of that experiment. For part of these data: At least one verdict rests on a figure or table, not on a statement of the authors. For part of these data: Where a protein sequence is shown, tags need not be part of it. For part of these data: Results from cells or extracts need not show a direct contact.
Assays:
[1] = molecular target: JunD (UniProt P17535); experiment: EMSA; conditions: 135 or 270 ng protein, EMSA: 10X binding buffer (composition not given), glycerol, poly(dI-dC), 5 nM labeled oligo, 135 or 270 ng recombinant protein or 2.5-5 ug nuclear lysate, commercial protein, label: 5' IRDye700
[2] = molecular target: T1, JunB (UniProt P17275); experiment: EMSA; conditions: 135 or 270 ng protein, EMSA: 10X binding buffer (composition not given), glycerol, poly(dI-dC), 5 nM labeled oligo, 135 or 270 ng recombinant protein or 2.5-5 ug nuclear lysate, commercial protein, label: 5' IRDye700
T1 sequence (looked up, limits assumed): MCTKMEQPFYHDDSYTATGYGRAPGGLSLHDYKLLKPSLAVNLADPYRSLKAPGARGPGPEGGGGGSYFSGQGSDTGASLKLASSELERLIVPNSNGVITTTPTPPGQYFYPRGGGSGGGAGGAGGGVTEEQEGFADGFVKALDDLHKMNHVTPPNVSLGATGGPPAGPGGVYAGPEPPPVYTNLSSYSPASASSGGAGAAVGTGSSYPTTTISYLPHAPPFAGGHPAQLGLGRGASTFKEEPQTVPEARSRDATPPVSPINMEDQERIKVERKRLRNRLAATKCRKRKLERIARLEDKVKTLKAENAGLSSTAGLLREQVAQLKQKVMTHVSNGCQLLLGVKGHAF

Sequences of proteins named here, by UniProt entry; tags and fusion partners are left off. A change or cut given only in a name is not applied to a line headed by its entry.
UniProt P17535: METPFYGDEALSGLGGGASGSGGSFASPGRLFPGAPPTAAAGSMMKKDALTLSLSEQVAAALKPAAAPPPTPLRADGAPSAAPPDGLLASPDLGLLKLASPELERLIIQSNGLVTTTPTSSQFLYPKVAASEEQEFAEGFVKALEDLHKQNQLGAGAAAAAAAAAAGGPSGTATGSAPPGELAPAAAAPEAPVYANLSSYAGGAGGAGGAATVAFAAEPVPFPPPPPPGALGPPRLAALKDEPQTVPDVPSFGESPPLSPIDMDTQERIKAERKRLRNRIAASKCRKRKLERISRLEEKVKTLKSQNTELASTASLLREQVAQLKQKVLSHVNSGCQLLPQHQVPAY
UniProt Q15723: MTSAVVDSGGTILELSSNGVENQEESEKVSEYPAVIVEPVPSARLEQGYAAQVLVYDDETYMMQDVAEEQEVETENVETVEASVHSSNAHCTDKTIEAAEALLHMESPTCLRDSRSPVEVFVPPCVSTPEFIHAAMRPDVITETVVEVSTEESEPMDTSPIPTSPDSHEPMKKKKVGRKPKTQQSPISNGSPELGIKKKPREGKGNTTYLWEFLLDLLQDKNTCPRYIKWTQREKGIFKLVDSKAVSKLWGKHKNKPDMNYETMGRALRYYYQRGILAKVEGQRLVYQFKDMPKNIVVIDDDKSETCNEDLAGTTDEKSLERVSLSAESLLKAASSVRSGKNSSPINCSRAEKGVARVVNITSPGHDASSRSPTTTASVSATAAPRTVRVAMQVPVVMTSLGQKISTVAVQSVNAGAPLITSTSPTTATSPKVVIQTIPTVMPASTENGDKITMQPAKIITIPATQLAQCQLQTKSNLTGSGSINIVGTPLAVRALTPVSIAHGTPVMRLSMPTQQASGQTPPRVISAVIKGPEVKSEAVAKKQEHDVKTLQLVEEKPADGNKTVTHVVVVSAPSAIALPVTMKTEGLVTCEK

[3] = molecular target: JunB in TPA-stimulated HeLa nuclear extract (human (HeLa)) (UniProt P17275); experiment: EMSA supershift; conditions: JunB antibody; EMSA: 10X binding buffer (composition not given), glycerol, poly(dI-dC), 5 nM labeled oligo, 135 or 270 ng recombinant protein or 2.5-5 ug nuclear lysate; protein in an extract; label: 5' IRDye700
[4] = molecular target: JunD in TPA-stimulated HeLa nuclear extract (human (HeLa)) (UniProt P17535); experiment: EMSA supershift; conditions: JunD antibody; EMSA: 10X binding buffer (composition not given), glycerol, poly(dI-dC), 5 nM labeled oligo, 135 or 270 ng recombinant protein or 2.5-5 ug nuclear lysate; protein in an extract; label: 5' IRDye700
[5] = tested on: ELF2; experiment: EMSA; conditions: 135 or 270 ng protein; EMSA: 10X binding buffer (composition not given), glycerol, poly(dI-dC), 5 nM labeled oligo, 135 or 270 ng recombinant protein or 2.5-5 ug nuclear lysate; commercial protein; label: 5' IRDye700
[6] = molecular target: ELF2 in PANC-1 nuclear extract (human (PANC-1)) (UniProt Q15723); experiment: EMSA supershift; conditions: ELF2 antibody, band lost; EMSA: 10X binding buffer (composition not given), glycerol, poly(dI-dC), 5 nM labeled oligo, 135 or 270 ng recombinant protein or 2.5-5 ug nuclear lysate; protein in an extract; label: 5' IRDye700

“AGTCACCGGTGACTCAGGCCGGCCAGAGTTT (double strand) [rs13303160 ALT (A, protective)]”: binds ([1]; also supershift); binds ([2]; also supershift); binds [3]. “AGTCACCGGTGACTCAGGCCGGCCAGAGTTT (double strand) [rs13303160 ALT (A, protective)]”: binds [4].

“AGTCACCGGTGACTCGGGCCGGCCAGAGTTT (double strand) [rs13303160 REF (G, risk)]”: binds more weakly [1]; binds more weakly [2].

“CTTCCCAGAGGAGGAAGATGGCGGGGCCTGG (double strand) [rs13303327 ALT (A, protective)]”: binds [5]; binds [6].

“CTTCCCAGAGGAGGAGGATGGCGGGGCCTGG (double strand) [rs13303327 REF (G, risk)]”: binds more weakly [5].

Source: paper PMC12044007
